Laboratory results published in paper doi:10.1101/2023.05.19.541430.
Where two headings read alike, the source gives them in different places. These are yes or no findings as the source states them, for the method shown. Binding can be weak; no strength is given. Tags and fused reporters may be left off the sequences shown. For part of these data: Binding seen in cells or lysates may run through a third protein.

Legend:
Experiment in all cases: pull-down
[1] = target: GST-tagged SQ/DWD motifs of BCP4 (Arabidopsis thaliana)
[2] = target: GST-tagged deletion 4 of BCP4 SQ/DWD motif (Arabidopsis thaliana)
[3] = target: GST-tagged SQ/DWD motifs of BCP4 (Arabidopsis thaliana); remark: listed apart in the source

Measured: binding

B1: His-tagged full-length NBS1 (protein, UniProt Q0H8D7 1-542)
chain: MVWGLFPVDPLSGEDKYYIFSKGIYKVGRKGCDIIINKDKGVSRIHAELTFDATTVSTSRRNKSSSDTSSFVIRVKDCSKYGTFVKTDLGTKDKVHELSNKEKILQDGDVIAFGTGSAIYRLSLIPLVFYLCPSSETFKVDQPVQDAVSSIGARISPTLSEECTHVLLEPRMQVNEALINAILAKKTIILTNWVMLLAEKSICSEIPGYSQYRPSVMVEEALVDVLELNVREKCLEGFTFVLEPTDTYRFGCSFPSLLEVCGAETVTIEDISSMSQDSQFGEINRMICVIPKSAGDKFGRFKHLSLLSRVNEMDLVCAVFSGNLPSTSLIPPSVVISSSCSTDETVVADSEAEEEETTSSVHMIDATEKAETPEKPAAIVIEDSPVTILEETSNLNEFKSVNLLADTESRGHMDEKNSSDSVTIRRDRNDEAETGKSEIIYTQDLIVRDLRSTRKVQSTGGEGVVDFKRFRKGNVTCGNSFSSLIPFAKDPYKEYDSWDVTDFMKEEKKRKQMEAIAEDLFKTEKARKRGTAGSIRGFLSGS
binds: all assays above
